The supplement of paper PMC10849652
Some of the results follow.

The chains behind the UniProt entries cited, without tags or fusion partners. Where a name states a change or a piece, a line headed by the entry shows the natural chain unless it says otherwise.
UniProt Q8N766: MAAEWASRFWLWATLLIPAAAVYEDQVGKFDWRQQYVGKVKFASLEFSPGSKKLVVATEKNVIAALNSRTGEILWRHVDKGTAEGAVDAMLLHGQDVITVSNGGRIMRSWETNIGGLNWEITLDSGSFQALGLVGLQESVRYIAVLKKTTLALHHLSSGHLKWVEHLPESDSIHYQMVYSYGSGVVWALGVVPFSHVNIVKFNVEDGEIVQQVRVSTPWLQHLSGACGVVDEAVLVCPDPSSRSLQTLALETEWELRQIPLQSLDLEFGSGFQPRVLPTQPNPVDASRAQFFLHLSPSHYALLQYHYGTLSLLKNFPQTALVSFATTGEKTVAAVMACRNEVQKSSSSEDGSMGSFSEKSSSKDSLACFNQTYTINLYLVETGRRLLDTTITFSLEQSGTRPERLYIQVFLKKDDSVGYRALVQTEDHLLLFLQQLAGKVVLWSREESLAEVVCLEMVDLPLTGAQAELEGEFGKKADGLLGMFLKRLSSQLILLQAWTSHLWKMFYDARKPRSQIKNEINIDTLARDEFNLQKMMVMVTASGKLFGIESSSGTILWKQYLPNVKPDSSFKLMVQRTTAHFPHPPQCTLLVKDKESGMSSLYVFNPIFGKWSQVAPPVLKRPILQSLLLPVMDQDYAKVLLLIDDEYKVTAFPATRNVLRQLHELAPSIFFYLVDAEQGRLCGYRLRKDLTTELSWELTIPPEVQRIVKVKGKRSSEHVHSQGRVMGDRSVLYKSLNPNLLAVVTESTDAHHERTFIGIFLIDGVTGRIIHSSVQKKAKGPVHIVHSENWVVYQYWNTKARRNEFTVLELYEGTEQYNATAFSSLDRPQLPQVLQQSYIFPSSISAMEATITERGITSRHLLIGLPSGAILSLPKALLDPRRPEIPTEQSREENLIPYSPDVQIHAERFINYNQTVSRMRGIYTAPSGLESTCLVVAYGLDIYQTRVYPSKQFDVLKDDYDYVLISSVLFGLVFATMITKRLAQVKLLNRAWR
UniProt Q9UBQ5, whole entry, looked up: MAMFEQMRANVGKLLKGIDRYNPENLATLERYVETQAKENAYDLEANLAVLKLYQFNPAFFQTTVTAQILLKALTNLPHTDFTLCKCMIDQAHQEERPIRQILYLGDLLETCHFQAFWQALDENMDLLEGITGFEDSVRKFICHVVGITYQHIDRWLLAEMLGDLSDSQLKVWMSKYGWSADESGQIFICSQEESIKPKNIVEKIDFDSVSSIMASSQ
UniProt Q13144, whole entry, looked up: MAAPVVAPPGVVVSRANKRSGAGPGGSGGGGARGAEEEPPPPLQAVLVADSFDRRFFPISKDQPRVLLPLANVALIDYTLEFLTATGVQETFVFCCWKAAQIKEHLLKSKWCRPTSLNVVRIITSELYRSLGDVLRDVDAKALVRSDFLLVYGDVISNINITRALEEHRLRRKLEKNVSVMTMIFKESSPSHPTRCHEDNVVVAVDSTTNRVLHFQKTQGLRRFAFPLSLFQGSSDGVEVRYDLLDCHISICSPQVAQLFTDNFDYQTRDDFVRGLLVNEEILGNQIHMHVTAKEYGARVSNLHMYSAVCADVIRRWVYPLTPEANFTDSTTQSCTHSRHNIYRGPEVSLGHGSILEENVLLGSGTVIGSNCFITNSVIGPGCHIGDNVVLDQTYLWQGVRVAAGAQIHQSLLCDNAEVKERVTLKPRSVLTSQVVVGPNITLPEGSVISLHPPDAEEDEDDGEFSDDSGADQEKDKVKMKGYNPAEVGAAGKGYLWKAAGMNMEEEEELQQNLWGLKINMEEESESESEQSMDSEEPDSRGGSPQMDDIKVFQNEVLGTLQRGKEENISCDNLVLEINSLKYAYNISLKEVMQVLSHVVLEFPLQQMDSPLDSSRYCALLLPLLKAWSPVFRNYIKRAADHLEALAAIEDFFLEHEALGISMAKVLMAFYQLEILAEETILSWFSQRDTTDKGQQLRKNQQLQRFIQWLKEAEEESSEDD
UniProt O95834: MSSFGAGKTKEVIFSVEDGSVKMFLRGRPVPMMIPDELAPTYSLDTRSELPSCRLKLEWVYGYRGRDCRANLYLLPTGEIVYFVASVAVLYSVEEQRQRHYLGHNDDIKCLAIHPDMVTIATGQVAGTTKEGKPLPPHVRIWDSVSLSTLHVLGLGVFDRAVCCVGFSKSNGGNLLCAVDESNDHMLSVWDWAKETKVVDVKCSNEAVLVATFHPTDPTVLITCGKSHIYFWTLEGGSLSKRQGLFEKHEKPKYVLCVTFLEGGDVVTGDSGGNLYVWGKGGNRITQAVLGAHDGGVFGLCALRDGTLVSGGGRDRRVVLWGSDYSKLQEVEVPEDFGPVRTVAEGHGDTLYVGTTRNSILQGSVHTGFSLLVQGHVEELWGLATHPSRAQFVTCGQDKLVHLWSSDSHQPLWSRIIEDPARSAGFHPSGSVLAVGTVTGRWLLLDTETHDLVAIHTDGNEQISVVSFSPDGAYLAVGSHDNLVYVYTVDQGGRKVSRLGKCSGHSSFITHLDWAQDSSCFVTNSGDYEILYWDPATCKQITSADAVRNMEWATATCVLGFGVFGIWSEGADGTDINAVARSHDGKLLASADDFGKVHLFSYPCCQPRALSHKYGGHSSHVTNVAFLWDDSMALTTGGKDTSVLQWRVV
UniProt Q7L2H7, whole entry, looked up: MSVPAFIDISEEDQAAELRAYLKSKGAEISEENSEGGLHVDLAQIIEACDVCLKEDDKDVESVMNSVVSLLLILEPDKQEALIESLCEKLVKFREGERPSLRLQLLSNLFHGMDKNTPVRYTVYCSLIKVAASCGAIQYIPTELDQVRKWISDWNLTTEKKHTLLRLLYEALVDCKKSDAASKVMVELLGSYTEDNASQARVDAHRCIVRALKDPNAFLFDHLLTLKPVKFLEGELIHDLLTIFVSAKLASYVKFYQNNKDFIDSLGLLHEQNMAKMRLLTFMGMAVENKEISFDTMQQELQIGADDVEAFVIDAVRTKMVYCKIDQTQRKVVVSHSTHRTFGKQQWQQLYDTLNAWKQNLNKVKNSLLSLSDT
UniProt Q5UCC4: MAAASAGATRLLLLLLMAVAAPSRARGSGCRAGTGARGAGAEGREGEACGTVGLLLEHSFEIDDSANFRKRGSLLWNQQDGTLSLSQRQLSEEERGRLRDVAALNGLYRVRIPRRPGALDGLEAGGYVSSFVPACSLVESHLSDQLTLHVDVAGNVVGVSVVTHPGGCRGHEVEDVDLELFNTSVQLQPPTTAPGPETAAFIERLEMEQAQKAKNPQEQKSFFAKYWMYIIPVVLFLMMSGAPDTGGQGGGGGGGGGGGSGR
UniProt P19525: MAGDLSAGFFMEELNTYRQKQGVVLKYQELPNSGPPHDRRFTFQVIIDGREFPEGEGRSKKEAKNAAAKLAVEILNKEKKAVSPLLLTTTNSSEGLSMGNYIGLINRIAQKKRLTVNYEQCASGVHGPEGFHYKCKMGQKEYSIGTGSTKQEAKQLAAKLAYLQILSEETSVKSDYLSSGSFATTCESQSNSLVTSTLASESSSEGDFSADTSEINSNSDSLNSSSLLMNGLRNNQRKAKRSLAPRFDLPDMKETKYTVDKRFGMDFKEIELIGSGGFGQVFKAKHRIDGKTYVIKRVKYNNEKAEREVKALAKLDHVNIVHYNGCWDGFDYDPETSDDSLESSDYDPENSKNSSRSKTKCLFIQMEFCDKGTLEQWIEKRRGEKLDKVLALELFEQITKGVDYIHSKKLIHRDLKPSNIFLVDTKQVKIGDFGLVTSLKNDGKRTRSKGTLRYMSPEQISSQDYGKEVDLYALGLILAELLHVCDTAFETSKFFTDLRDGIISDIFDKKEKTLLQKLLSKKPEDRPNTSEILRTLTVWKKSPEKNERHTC
UniProt Q08426: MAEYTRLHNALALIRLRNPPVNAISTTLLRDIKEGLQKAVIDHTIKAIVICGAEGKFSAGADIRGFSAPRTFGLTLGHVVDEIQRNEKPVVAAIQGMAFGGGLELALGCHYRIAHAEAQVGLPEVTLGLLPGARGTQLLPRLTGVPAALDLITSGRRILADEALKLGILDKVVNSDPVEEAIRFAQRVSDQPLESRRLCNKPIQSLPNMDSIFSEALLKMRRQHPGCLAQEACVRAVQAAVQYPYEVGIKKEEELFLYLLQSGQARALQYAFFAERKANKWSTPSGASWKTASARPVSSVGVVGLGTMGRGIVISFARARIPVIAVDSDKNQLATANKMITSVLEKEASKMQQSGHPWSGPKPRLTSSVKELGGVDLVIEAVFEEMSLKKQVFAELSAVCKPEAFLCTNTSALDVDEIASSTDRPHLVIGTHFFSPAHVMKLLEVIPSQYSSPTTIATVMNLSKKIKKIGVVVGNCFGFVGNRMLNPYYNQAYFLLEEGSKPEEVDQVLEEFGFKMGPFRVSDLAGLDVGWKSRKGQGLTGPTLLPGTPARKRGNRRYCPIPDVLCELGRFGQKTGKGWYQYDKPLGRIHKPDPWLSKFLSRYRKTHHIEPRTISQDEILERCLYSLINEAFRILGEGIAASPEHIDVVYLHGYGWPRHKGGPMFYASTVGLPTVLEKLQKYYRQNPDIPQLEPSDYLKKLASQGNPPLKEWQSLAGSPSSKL
UniProt Q32P44: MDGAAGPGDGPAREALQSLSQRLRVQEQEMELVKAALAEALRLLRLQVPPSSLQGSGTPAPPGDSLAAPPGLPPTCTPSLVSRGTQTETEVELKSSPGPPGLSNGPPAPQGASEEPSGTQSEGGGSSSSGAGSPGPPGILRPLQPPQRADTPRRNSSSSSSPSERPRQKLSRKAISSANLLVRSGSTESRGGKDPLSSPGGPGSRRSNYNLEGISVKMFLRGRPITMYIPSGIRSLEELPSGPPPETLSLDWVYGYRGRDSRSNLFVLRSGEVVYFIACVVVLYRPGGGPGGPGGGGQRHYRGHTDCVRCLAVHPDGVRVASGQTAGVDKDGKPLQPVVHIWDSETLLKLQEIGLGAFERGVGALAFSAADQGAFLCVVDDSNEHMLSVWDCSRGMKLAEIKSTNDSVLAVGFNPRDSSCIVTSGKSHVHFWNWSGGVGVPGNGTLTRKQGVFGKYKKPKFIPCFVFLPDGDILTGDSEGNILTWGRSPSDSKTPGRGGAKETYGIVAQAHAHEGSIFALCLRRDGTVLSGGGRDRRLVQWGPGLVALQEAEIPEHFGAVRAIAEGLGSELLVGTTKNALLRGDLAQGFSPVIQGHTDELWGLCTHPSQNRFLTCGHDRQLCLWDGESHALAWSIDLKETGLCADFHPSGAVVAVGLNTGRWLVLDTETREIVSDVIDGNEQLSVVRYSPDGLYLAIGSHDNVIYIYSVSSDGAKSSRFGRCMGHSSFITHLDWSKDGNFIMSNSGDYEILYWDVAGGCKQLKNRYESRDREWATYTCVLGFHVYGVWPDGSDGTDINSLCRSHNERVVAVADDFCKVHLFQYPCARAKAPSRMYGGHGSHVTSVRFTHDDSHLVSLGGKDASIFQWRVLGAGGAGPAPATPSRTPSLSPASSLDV
UniProt P41567, whole entry, looked up: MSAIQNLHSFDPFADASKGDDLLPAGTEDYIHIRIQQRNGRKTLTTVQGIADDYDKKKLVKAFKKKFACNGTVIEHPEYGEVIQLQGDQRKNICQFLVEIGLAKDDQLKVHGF
UniProt P38919, whole entry, looked up: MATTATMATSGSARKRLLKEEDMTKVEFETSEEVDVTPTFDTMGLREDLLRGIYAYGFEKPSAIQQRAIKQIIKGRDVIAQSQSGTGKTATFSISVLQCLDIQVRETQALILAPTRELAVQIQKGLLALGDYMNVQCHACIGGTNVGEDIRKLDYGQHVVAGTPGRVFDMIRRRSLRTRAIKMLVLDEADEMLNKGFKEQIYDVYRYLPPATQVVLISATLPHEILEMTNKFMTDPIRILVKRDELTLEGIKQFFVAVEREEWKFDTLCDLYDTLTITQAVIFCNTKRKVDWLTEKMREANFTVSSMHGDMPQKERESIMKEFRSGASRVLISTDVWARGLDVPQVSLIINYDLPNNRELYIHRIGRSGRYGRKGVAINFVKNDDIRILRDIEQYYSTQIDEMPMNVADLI
UniProt Q14240, whole entry, looked up: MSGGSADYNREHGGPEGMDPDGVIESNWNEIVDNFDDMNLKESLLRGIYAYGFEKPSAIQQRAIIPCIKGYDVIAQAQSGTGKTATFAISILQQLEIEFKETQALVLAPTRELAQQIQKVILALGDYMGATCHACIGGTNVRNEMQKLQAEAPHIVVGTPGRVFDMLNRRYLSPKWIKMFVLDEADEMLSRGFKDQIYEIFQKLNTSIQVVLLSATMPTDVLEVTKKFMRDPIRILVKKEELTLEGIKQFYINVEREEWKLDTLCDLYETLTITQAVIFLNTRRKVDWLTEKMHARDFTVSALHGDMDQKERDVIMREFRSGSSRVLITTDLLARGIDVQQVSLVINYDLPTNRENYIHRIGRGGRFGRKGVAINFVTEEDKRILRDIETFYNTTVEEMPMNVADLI
UniProt Q9NPA0: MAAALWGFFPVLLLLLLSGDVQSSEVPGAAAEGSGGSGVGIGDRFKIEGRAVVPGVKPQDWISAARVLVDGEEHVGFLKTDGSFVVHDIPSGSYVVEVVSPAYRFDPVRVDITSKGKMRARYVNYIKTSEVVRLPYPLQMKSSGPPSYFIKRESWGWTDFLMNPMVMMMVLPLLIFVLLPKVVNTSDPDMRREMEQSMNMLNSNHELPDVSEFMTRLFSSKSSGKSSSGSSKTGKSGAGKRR

Assays:
Experiment in all cases: log2 fold change, soluble protein after heating vs DMSO (PISA); higher = thermal stabilisation; K562 cells, 10 uM, 30 min; active = over 0.2 and 3.5 SD of the protein, either way, in both replicates (recomputed)
[1] = compound: CS(=O)(=O)c1ccc(-c2cnc(N)c(C(=O)Nc3ccccc3)n2)cc1
How it was run: (§1)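 Values are thermal stability changes relative to control samples and are taken from duplicates. They are stated as log2 fold changes. Before quantification by TMTpro 16plex LC-MS/MS with equalised channel sums, K562 cells at 2×10^6 cells/mL were treated with 10 μM compound for 30 min, heated in aliquots for 3 min across 48°C-58°C, pooled, extracted in PBS with 0.5% NP-40 at 4°C, and centrifuged at 21,000xg for 90 min to give the soluble supernatant.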

[2] = compound: C[C@@H](Oc1cc(-c2cnn(C3CCNCC3)c2)cnc1N)c1c(Cl)ccc(F)c1Cl [crizotinib]
How it was run: as §1

[3] = compound: C[C@@H]1COCCN1C2=NC(=NC(=C2)C3(CC3)S(=O)(=O)C)C4=C5C=CNC5=CC=C4
How it was run: as §1

[4] = compound: C[C@H](C1=CC=C(C=C1)C(=O)NC2=C3C=CNC3=NC=C2)N
How it was run: as §1

[5] = compound: C[C@H](Nc1ncnc2nc[nH]c12)c1cc2cccc(Cl)c2c(=O)n1-c1ccccc1 [duvelisib]
How it was run: as §1

[6] = compound: Cc1cc(Nc2cc(CN3CCOCC3)c3nc(C)c(Cc4ccc(Cl)cc4F)n3n2)n[nH]1 [gandotinib]
How it was run: as §1

[7] = compound: Cc1cc(Nc2cc(N3CCN(C)CC3)nc(Sc3ccc(NC(=O)C4CC4)cc3)n2)n[nH]1 [tozasertib]
How it was run: as §1

[8] = compound: Cc1cc(SCc2sc(-c3ccc(C(F)(F)F)cc3)nc2C)ccc1OCC(=O)O
How it was run: as §1

[9] = compound: Cc1ccc(-n2nc(C(C)(C)C)cc2NC(=O)Nc2ccc(OCCN3CCOCC3)c3ccccc23)cc1 [doramapimod]
How it was run: as §1

[10] = compound: Cc1ccc(C(=O)N(CCCN)[C@@H](c2nc3cc(Cl)ccc3c(=O)n2Cc2ccccc2)C(C)C)cc1 [ispinesib]
How it was run: as §1

Measured: log2 fold change

EIF2A (UniProt Q9BY44)
inactive: [1] -0.063 | [2] 0.008 | [3] -0.113 | [4] 0.034 | [5] -0.023 | [6] 0.046 | [7] 0.025 | [8] 0.037 | [9] 0.011 | [10] 0.022

EHD1 (UniProt Q9H4M9)
inactive: [1] 0.026 | [2] -0.063 | [3] 0.065 | [4] -0.058 | [5] 0.025 | [6] -0.057 | [7] -0.027 | [8] -0.001 | [9] -0.016 | [10] -0.031

ELOF1 (UniProt P60002)
inactive: [1] -0.117 | [2] 0.117 | [3] -0.055 | [4] -0.002 | [5] -0.1 | [6] -0.082 | [7] -0.074 | [8] 0.118 | [9] -0.295 | [10] -0.023

ELMOD2 (UniProt Q8IZ81)
inactive: [1] -0.01 | [2] 0.011 | [3] -0.007 | [4] -0.064 | [5] 0.014 | [6] -0.045 | [7] -0.007 | [8] 0.05 | [9] -0.048 | [10] 0.176

2 records picked at random from the list so far:
EIF2A (UniProt Q9BY44)
inactive: [1] -0.063 | [2] 0.008 | [3] -0.113 | [4] 0.034 | [5] -0.023 | [6] 0.046 | [7] 0.025 | [8] 0.037 | [9] 0.011 | [10] 0.022

EHD1 (UniProt Q9H4M9)
inactive: [1] 0.026 | [2] -0.063 | [3] 0.065 | [4] -0.058 | [5] 0.025 | [6] -0.057 | [7] -0.027 | [8] -0.001 | [9] -0.016 | [10] -0.031

Next part

EMC1 (UniProt Q8N766)
inactive: [1] -0.018 | [2] 0.001 | [3] 0.006 | [4] -0.052 | [5] 0.008 | [6] 0.014 | [7] 0.014 | [8] 0.024 | [9] 0 | [10] -0.003

EIF6 (UniProt P56537)
inactive: [1] 0.004 | [2] 0.059 | [3] -0.056 | [4] 0.029 | [5] 0.015 | [6] 0.087 | [7] -0.091 | [8] -0.038 | [9] -0.002 | [10] -0.003

EIF3K (UniProt Q9UBQ5)
inactive: [1] -0.02 | [2] -0.036 | [3] 0.058 | [4] -0.017 | [5] 0.034 | [6] 0.002 | [7] 0.007 | [8] 0.042 | [9] 0.06 | [10] 0.06

ELP1 (UniProt O95163)
inactive: [1] 0.031 | [2] 0 | [3] 0.027 | [4] -0.021 | [5] 0.034 | [6] -0.051 | [7] -0.009 | [8] 0.006 | [9] 0.014 | [10] 0.015

EMG1 (UniProt Q92979)
inactive: [1] -0.048 | [2] 0.074 | [3] -0.144 | [4] 0.078 | [5] 0.001 | [6] 0.037 | [7] -0.009 | [8] -0.021 | [9] 0.012 | [10] 0.033

EIF3G (UniProt O75821)
inactive: [1] -0.004 | [2] -0.029 | [3] -0.036 | [4] 0.046 | [5] -0.04 | [6] -0.019 | [7] 0.044 | [8] 0.017 | [9] 0.053 | [10] -0.094

EIF2B5 (UniProt Q13144)
inactive: [1] 0.023 | [2] -0.031 | [3] -0.097 | [4] 0.098 | [5] -0.052 | [6] -0.028 | [7] 0.012 | [8] 0.036 | [9] 0.006 | [10] -0.004

ENOSF1 (UniProt Q7L5Y1)
inactive: [1] 0.037 | [2] 0.017 | [3] 0.064 | [4] -0.014 | [5] 0.073 | [6] -0.023 | [7] 0.002 | [8] 0.024 | [9] 0.003 | [10] 0.042

EML2 isoform 3 (UniProt O95834)
inactive: [1] -0.001 | [2] -0.123 | [3] 0.112 | [4] -0.043 | [5] 0.029 | [6] -0.043 | [7] -0.005 | [8] 0.001 | [9] -0.004 | [10] -0.003

EIF3M (UniProt Q7L2H7)
inactive: [1] -0.017 | [2] -0.042 | [3] -0.01 | [4] 0.003 | [5] 0.031 | [6] -0.044 | [7] 0.069 | [8] 0.076 | [9] -0.043 | [10] 0.003

EIF1AX (UniProt P47813)
inactive: [1] -0.012 | [2] -0.011 | [3] -0.048 | [4] -0.06 | [5] -0.014 | [6] -0.021 | [7] 0.002 | [8] 0.041 | [9] 0.012 | [10] 0.094

EMC10 (UniProt Q5UCC4)
inactive: [1] 0.006 | [2] 0.022 | [3] 0.022 | [4] -0.03 | [5] 0.018 | [6] -0.041 | [7] -0.002 | [8] -0.016 | [9] 0.022 | [10] -0.006

EIF2AK2 (UniProt P19525)
inactive: [1] 0.035 | [2] 0.023 | [3] -0.378 | [4] 0.543 | [5] -0.021 | [6] 0.174 | [7] 0.058 | [8] -0.031 | [9] 0.345 | [10] -0.344

ENO1 (UniProt P06733)
inactive: [1] 0.009 | [2] 0.022 | [3] 0.009 | [4] -0.038 | [5] 0.018 | [6] -0.02 | [7] -0.038 | [8] -0.04 | [9] -0.02 | [10] 0.008

EMC8 (UniProt O43402)
inactive: [1] -0.018 | [2] 0.012 | [3] 0.067 | [4] -0.024 | [5] 0.005 | [6] 0.04 | [7] -0.032 | [8] -0.021 | [9] -0.016 | [10] 0.051

EHHADH (UniProt Q08426)
inactive: [1] 0 | [2] 0.046 | [3] 0.077 | [4] 0.016 | [5] 0.086 | [6] -0.034 | [7] -0.037 | [8] 0.071 | [9] -0.019 | [10] 0.043

ELP6 (UniProt Q0PNE2)
inactive: [1] -0.03 | [2] 0.061 | [3] 0.026 | [4] -0.026 | [5] 0.015 | [6] -0.059 | [7] 0.007 | [8] -0.007 | [9] -0.026 | [10] 0.012

EEF1E1 (UniProt O43324)
inactive: [1] 0.027 | [2] -0.04 | [3] -0.025 | [4] 0.039 | [5] 0.02 | [6] 0 | [7] -0.01 | [8] 0.052 | [9] 0.15 | [10] -0.158

ELP3 (UniProt Q9H9T3)
inactive: [1] 0.057 | [2] 0.043 | [3] -0.012 | [4] -0.042 | [5] 0.015 | [6] 0.005 | [7] 0.013 | [8] 0.001 | [9] -0.007 | [10] 0.055

EML3 (UniProt Q32P44)
inactive: [1] 0.066 | [2] -0.221 | [3] -0.076 | [4] 0.19 | [5] -0.219 | [6] 0.206 | [7] -0.119 | [8] -0.092 | [9] 0.203 | [10] -0.065

EIF1 (UniProt P41567)
inactive: [1] 0.018 | [2] 0.042 | [3] -0.075 | [4] -0.063 | [5] 0.029 | [6] 0.07 | [7] -0.013 | [8] -0.025 | [9] -0.027 | [10] 0.001

EIF4A3 (UniProt P38919)
inactive: [1] 0.028 | [2] 0.179 | [3] 0.057 | [4] -0.001 | [5] 0.009 | [6] 0.048 | [7] 0 | [8] 0.026 | [9] -0.045 | [10] 0.041

EIF4A2 isoform 2 (UniProt Q14240)
inactive: [1] -0.035 | [2] -0.009 | [3] 0.016 | [4] -0.037 | [5] 0.03 | [6] -0.118 | [7] -0.012 | [8] 0.032 | [9] 0 | [10] -0.015

EMC7 (UniProt Q9NPA0)
inactive: [1] -0.011 | [2] 0.018 | [3] 0.029 | [4] -0.005 | [5] 0.066 | [6] -0.071 | [7] -0.006 | [8] -0.012 | [9] -0.016 | [10] -0.055

ENY2 (UniProt Q9NPA8)
inactive: [1] -0.039 | [2] 0.166 | [3] 0.159 | [4] -0.087 | [5] 0.075 | [6] -0.108 | [7] 0.048 | [8] 0.01 | [9] -0.003 | [10] 0.082

EIF4B (UniProt P23588)
inactive: [1] -0.025 | [2] 0.029 | [3] 0.03 | [4] -0.035 | [5] 0.021 | [6] -0.028 | [7] -0.019 | [8] -0.037 | [9] -0.01 | [10] 0.003
